Reference: the supplement of paper PMC12819154, “High-throughput peptide-centric local stability assay extends protein–ligand identification to membrane proteins, tissues and bacteria” (Nature Structural & Molecular Biology, 2025)
The list shows a part of the results. Most values lie at the level of the controls, where differences are scatter.

By UniProt entry, the sequences of proteins in these tests, tags left out. Where a name states a change or a piece, a line headed by the entry shows the natural chain unless it says otherwise.
UniProt Q5U5Q3: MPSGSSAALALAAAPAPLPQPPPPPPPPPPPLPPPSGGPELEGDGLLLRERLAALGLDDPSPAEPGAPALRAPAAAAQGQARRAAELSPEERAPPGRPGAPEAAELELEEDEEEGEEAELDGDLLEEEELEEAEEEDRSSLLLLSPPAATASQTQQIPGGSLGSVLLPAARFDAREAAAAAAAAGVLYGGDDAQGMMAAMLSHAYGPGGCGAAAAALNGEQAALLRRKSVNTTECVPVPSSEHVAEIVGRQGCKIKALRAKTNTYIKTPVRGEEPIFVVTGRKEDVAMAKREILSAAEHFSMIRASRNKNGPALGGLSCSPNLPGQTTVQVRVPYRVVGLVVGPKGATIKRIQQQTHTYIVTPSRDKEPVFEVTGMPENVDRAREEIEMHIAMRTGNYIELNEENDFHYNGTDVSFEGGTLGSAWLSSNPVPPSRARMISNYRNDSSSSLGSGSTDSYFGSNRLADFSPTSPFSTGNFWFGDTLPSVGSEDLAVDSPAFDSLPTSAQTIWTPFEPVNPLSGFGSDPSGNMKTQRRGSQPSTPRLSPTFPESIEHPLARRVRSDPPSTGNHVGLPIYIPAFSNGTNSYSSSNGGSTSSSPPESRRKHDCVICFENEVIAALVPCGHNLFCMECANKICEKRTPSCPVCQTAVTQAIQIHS
UniProt Q5TZA2: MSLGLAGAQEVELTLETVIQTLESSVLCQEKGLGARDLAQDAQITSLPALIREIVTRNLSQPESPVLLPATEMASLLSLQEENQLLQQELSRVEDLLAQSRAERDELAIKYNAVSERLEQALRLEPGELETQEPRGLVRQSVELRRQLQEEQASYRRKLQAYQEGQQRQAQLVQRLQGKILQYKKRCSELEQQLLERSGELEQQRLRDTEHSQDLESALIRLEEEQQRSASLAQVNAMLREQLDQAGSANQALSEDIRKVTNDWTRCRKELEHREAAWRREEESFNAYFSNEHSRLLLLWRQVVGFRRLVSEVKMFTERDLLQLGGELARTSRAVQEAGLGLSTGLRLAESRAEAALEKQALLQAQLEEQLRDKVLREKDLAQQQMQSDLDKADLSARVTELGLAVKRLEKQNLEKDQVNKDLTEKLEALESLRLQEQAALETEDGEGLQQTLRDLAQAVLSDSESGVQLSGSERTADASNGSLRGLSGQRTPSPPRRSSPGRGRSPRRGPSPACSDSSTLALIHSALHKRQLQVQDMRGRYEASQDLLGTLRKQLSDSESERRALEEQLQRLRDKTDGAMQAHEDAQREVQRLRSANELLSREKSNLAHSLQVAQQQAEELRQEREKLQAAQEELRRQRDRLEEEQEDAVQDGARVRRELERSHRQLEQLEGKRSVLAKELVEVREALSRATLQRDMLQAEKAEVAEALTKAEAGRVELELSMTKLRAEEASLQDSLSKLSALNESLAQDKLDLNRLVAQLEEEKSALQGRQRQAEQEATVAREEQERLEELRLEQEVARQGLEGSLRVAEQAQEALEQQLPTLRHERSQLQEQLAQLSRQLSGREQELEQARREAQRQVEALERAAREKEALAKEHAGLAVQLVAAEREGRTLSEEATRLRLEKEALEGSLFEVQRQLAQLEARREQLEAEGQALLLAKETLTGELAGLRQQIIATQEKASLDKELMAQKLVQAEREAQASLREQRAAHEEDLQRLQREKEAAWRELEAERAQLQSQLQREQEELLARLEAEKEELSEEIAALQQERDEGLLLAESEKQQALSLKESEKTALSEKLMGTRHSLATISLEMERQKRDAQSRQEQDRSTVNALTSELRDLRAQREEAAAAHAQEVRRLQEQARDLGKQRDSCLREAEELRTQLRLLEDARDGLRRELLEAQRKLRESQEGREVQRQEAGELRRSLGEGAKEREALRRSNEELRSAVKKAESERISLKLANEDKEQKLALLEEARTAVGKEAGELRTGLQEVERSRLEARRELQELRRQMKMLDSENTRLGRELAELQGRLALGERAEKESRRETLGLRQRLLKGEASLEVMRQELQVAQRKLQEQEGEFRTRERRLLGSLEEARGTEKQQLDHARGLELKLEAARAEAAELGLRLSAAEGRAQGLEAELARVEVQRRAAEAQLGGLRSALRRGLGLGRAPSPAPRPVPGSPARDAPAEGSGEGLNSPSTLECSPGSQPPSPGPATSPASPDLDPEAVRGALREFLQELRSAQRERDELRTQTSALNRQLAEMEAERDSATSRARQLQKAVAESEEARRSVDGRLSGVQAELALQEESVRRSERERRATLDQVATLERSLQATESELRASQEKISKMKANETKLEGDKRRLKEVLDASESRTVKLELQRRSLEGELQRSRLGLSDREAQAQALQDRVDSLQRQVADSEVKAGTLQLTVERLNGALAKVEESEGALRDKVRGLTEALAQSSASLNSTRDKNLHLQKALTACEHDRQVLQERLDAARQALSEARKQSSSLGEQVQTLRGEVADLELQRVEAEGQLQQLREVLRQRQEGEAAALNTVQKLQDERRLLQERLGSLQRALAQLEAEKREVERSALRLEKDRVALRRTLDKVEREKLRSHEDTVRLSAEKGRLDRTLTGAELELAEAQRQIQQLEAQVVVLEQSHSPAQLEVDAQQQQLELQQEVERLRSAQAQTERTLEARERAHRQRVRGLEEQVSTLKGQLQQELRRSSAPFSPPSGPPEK
UniProt Q5VV41: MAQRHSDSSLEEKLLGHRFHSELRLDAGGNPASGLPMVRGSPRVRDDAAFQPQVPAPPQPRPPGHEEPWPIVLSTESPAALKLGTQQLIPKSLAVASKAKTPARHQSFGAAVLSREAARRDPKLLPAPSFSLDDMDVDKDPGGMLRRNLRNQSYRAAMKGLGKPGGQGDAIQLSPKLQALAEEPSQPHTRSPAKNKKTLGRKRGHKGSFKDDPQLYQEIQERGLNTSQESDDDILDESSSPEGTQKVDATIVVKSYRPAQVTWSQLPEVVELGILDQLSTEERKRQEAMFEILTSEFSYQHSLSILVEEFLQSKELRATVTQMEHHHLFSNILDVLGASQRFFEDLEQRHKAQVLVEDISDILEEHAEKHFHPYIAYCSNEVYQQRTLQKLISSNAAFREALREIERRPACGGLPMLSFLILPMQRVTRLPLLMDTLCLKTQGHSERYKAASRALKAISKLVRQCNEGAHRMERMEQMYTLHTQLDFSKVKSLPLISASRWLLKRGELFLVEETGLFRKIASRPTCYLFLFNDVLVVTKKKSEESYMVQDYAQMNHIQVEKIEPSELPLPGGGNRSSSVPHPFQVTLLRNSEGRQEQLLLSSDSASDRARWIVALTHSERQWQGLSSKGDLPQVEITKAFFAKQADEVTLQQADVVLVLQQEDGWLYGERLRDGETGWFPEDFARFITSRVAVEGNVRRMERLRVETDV
UniProt Q5BKU9: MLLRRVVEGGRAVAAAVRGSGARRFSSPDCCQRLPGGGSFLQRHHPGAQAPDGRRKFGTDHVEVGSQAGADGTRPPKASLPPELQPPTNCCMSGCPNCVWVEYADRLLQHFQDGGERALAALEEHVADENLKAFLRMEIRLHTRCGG
UniProt Q5VTU8: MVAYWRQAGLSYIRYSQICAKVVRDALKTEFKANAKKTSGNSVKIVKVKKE
UniProt Q5RKV6, whole entry: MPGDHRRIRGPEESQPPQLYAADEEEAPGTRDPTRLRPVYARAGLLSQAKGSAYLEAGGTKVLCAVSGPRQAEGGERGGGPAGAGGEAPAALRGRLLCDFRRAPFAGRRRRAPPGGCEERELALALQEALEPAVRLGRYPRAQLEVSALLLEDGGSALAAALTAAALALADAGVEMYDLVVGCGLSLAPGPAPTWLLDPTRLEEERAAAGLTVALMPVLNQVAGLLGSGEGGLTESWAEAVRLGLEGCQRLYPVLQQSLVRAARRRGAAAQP
UniProt Q5VU92: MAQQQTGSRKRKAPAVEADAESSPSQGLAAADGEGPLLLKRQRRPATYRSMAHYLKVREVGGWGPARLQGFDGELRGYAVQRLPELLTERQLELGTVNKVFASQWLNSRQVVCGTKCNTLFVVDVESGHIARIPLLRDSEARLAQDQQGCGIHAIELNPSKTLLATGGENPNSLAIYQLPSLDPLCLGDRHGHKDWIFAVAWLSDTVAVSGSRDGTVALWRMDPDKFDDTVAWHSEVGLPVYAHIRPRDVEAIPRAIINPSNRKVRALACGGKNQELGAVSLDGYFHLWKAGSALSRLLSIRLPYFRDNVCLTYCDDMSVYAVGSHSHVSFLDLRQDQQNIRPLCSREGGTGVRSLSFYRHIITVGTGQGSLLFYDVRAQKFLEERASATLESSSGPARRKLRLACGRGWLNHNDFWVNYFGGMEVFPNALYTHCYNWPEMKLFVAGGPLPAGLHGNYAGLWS
UniProt Q5T440: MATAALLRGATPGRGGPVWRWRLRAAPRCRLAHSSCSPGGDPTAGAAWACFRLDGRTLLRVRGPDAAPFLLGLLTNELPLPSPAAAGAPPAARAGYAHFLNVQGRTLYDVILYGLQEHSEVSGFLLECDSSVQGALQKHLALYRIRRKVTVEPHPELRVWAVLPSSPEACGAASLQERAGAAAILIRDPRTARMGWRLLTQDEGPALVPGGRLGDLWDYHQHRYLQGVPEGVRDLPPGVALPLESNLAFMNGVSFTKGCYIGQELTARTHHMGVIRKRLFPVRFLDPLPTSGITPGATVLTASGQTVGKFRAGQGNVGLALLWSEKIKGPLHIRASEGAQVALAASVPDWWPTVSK
UniProt Q5VTE6: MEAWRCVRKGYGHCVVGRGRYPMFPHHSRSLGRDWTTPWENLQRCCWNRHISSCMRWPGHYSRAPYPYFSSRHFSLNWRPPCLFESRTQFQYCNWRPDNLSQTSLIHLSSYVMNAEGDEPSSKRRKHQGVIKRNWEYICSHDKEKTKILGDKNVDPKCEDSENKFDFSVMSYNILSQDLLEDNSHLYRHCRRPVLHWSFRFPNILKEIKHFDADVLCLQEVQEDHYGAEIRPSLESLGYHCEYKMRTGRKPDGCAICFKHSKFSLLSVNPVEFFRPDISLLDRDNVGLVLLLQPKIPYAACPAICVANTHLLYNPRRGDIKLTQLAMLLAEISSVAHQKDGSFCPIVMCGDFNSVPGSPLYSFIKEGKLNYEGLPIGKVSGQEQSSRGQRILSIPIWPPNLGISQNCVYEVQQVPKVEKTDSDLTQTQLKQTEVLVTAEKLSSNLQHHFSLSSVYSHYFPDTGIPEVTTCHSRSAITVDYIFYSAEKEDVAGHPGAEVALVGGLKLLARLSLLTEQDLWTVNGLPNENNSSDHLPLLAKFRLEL
UniProt Q5T6V5: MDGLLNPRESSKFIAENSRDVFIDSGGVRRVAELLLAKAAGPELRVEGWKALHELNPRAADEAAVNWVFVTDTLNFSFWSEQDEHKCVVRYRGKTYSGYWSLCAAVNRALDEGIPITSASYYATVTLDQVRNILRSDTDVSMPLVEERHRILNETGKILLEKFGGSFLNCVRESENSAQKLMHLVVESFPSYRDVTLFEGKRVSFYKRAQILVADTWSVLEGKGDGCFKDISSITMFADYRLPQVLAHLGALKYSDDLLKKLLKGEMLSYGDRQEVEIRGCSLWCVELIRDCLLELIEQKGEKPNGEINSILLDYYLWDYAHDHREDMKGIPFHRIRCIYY
UniProt Q5JTV8: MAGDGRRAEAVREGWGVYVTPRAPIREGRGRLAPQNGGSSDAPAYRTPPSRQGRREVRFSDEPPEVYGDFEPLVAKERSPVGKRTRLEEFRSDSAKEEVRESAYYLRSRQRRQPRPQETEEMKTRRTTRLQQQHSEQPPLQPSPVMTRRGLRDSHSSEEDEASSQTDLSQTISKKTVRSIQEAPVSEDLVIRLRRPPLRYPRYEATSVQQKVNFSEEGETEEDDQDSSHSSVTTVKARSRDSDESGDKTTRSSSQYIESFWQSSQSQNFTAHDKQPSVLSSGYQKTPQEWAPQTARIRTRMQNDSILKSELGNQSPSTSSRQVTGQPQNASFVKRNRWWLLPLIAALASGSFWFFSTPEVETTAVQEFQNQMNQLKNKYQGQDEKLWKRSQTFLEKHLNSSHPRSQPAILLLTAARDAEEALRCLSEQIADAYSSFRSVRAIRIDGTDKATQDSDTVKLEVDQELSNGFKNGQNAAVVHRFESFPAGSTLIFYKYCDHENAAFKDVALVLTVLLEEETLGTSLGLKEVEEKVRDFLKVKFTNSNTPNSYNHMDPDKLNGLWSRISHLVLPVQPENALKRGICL

What follows are targets tested with CN[C@@H]1C[C@H]2O[C@@](C)([C@@H]1OC)n1c3ccccc3c3c4c(c5c6ccccc6n2c5c31)C(=O)NC4 [staurosporine] (assay: log2 fold change of tryptic peptide abundance, ligand vs vehicle (limited proteolysis) (log2 ratio); higher = more trypsin-susceptible (destabilized)). Conditions: ligand concentration: 20 uM; sample: K562 cleared lysate; digestion: 4 min, 22 C (HT-PELSA RT4min, Orbitrap Astral).

| Target | log2 fold change |
| --- | --- |
| MEX3C (peptide sequence: TPVRGEEPIFVVTGR, peptide start residue: 268) (UniProt Q5U5Q3) | -0.238 |
| UniProt Q5VWN6 (peptide sequence: ISEAPFLHPAPR, peptide start residue: 2023) | -0.62 |
| RRP12 (peptide sequence: LYSTIRPYLESK, peptide start residue: 772) (UniProt Q5JTH9) | 0.288 |
| SLX4IP (peptide sequence: NCSSAEDFDHHGR, peptide start residue: 298) (UniProt Q5VYV7) | 0.644 |
| PHF19 (peptide sequence: WAAELDGR, peptide start residue: 490) (UniProt Q5T6S3) | -0.0987 |
| CROCC (peptide sequence: SLGEGAK, peptide start residue: 1204) (UniProt Q5TZA2) | 0.00532 |
| GFI1B (peptide sequence: VQEDEPLWPPALTPVPR, peptide start residue: 20) (UniProt Q5VTD9) | -0.11 |
| ARHGEF16 (peptide sequence: LQALAEEPSQPHTR, peptide start residue: 177) (UniProt Q5VV41) | -0.229 |
| CDCA8 (peptide sequence: LAQICSSIR, peptide start residue: 269) (UniProt Q53HL2) | -0.175 |
| OXLD1 (peptide sequence: LLQHFQDGGER, peptide start residue: 107) (UniProt Q5BKU9) | 0.54 |
| UniProt Q5VTU8 (peptide sequence: QAGLSYIR, peptide start residue: 7) | 0.099 |
| NT5DC1 (peptide sequence: SQRPEESEPLEK, peptide start residue: 345) (UniProt Q5TFE4) | -0.0814 |
| UniProt Q5FBB7 (peptide sequence: NLAEIGKR, peptide start residue: 29) | 0.47 |
| VPS26B (peptide sequence: IYFLLVR, peptide start residue: 193) (UniProt Q4G0F5) | -0.292 |
| EXOSC6 (peptide sequence: GGGPAGAGGEAPAALR, peptide start residue: 78) (UniProt Q5RKV6) | 0.462 |
| SAMD9 (peptide sequence: VELIEDKIDYTK, peptide start residue: 140) (UniProt Q5K651) | -0.776 |
| UniProt Q5VU92 (peptide sequence: QLELGTVNK, peptide start residue: 91) | 0.0161 |
| UniProt Q5T011 (peptide sequence: DLMHVHSFSYDFHLR, peptide start residue: 3038) | 1.23 |
| UniProt Q5T440 (peptide sequence: GCYIGQELTAR, peptide start residue: 258) | 0.056 |
| CCDC18 (peptide sequence: EVLETELQNAHGELK, peptide start residue: 944) (UniProt Q5T9S5) | 0.428 |
| ANGEL2 (peptide sequence: NWEYICSHDKEK, peptide start residue: 134) (UniProt Q5VTE6) | -0.269 |
| UniProt Q5T6F0 (peptide sequence: GWLNHDETWR, peptide start residue: 399) | 0.242 |
| C9orf64 (peptide sequence: ALHELNPR, peptide start residue: 51) (UniProt Q5T6V5) | 0.524 |
| TOR1AIP1 (peptide sequence: SIQEAPVSEDLVIR, peptide start residue: 179) (UniProt Q5JTV8) | -0.626 |
| SETMAR (peptide sequence: TTRPCGMAEFK, peptide start residue: 8) (UniProt Q53H47) | -0.556 |
| UniProt Q53GI3 (peptide sequence: EHCPESGEEAVAVVR, peptide start residue: 126) | 0.417 |

Reformatted with tabs: entries from further up
Target	log2 fold change
ANGEL2 (peptide sequence: NWEYICSHDKEK, peptide start residue: 134) (UniProt Q5VTE6)	-0.269
UniProt Q5T6F0 (peptide sequence: GWLNHDETWR, peptide start residue: 399)	0.242
